By UniProt entry, the sequences of proteins in these tests, tags left out.
UniProt P52631: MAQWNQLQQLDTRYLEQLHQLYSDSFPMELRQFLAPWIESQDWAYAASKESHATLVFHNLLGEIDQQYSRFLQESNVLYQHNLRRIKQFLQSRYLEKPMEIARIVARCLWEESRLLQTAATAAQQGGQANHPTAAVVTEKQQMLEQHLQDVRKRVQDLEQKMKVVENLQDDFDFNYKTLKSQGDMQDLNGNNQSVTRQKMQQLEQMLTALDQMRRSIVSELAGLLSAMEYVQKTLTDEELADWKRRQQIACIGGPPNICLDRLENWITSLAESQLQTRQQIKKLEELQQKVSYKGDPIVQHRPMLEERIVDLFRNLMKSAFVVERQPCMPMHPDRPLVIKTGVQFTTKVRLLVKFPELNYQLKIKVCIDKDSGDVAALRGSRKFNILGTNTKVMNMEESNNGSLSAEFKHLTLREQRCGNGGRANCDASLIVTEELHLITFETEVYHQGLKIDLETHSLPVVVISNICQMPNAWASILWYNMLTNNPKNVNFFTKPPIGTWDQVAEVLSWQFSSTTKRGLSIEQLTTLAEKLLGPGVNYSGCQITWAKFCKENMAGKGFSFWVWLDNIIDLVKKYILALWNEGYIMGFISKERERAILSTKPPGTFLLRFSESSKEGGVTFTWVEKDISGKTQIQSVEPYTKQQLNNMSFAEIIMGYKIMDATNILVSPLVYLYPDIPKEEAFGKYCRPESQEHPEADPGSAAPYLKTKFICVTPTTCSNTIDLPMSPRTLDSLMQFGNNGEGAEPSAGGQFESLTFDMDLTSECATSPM

In publication PMC10157730:

Biological target: T1, OTU Domain-Containing Protein 1 (OTUD1), endogenous in neonatal rat ventricular myocytes (rat (endogenous in neonatal rat ventricular myocytes)) (UniProt D3ZNC0)
T1 sequence: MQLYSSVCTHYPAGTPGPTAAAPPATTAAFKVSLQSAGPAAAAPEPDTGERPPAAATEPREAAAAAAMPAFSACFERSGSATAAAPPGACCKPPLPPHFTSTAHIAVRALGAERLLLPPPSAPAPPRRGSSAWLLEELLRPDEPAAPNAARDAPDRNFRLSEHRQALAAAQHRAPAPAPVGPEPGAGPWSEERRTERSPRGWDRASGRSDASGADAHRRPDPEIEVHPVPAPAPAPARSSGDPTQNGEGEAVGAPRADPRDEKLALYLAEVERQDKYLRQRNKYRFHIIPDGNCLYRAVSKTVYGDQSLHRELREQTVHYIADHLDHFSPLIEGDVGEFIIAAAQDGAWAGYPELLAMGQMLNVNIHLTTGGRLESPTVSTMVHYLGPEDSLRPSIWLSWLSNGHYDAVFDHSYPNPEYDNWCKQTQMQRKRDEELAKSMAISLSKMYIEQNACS
Test: affinity purification with mass spectrometry; anti-OTUD1 antibody added to NVRM lysates for IP, rabbit IgG as negative control, LC-MS/MS

binding: binds
Substance: signal transducer and activator of transcription 3 (STAT3), endogenous in neonatal rat ventricular myocytes (from UniProt P52631 1-770)

These are yes or no findings as the source states them, for the method shown. Binding seen in cells or lysates may run through a third protein. These calls come from enrichment with a bait or labelling near it, and not all partners need be listed.
